Test results as given in article PMC5735797.
These are yes or no findings as the source states them, for the method shown. Binding seen in cells or lysates may run through a third protein. Some results given as binding are weak or reduced against the parent protein; the word gives no strength. Sequences can lack the tags named with a protein.

The chains behind the UniProt entries cited, without tags or fusion partners.
UniProt Q13951: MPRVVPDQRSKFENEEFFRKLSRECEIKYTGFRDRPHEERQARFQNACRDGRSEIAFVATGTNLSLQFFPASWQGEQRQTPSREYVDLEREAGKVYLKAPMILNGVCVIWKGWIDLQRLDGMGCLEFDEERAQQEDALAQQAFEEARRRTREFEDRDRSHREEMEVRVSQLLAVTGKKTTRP
UniProt Q93034: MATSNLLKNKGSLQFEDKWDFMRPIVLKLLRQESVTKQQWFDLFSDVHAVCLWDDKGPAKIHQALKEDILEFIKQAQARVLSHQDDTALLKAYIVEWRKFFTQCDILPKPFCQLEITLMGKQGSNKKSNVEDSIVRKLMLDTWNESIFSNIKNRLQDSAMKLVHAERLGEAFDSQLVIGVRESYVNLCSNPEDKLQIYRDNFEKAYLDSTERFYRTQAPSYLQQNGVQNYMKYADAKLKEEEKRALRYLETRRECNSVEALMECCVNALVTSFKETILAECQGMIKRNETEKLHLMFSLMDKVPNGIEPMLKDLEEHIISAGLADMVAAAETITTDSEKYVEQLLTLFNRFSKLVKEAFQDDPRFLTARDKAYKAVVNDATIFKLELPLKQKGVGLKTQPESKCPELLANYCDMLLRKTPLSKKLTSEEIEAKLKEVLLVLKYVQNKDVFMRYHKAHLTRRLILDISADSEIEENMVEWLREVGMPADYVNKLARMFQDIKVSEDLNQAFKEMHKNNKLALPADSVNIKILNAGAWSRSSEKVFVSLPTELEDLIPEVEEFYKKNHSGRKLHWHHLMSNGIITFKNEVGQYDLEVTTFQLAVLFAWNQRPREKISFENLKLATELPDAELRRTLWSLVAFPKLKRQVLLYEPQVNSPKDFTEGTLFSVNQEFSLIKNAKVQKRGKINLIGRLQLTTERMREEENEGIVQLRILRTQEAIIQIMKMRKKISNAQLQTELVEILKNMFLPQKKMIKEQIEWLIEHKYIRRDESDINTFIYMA
UniProt Q15370: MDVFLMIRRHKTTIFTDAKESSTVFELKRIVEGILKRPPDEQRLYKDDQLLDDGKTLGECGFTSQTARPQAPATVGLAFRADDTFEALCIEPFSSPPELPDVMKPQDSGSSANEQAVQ

Assays:
[1] = biological target: T1, MOV10 with HA tag (pcDNA3.1-MOV10-HA) (UniProt Q9HCE1); test: co-IP; lysates of transfected 293T cells (150 mM NaCl, 50 mM Tris-HCl pH 7.5, 1 mM EDTA, 1% Triton X-100, 0.5% NP-40) on anti-HA agarose beads, 4 h at 4 °C, four washes, western blotting; in some panels cells treated with MG132 (4 μM, 16 h) or co-transfected with siRNAs against ElonginB, ElonginC or Cullin 5
T1 sequence: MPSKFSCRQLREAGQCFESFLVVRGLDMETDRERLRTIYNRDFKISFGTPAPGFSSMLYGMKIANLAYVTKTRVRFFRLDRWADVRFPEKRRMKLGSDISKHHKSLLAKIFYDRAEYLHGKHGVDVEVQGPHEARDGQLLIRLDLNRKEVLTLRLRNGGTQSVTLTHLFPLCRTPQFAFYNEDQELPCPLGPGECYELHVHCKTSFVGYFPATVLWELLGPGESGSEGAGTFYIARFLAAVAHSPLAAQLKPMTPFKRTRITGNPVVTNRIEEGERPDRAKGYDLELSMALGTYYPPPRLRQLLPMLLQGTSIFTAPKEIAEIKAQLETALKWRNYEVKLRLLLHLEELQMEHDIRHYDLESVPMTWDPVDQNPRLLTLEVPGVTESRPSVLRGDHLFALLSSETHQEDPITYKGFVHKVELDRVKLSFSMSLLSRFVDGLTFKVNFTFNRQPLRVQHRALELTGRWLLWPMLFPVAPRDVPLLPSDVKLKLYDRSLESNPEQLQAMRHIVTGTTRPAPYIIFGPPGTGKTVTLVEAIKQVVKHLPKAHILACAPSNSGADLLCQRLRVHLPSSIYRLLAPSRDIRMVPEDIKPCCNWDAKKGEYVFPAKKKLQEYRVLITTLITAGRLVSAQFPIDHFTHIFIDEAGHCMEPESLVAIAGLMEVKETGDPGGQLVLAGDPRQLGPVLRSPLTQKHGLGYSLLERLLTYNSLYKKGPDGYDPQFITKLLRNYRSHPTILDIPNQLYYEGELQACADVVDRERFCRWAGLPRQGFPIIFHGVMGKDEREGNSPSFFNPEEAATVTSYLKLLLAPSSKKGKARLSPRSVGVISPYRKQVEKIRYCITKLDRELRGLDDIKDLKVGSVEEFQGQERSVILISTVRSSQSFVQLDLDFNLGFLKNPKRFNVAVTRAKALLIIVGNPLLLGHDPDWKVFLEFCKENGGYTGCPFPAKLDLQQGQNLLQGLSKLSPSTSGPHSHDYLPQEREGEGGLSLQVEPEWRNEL

[2] = biological target: T1, MOV10 with HA tag (pcDNA3.1-MOV10-HA); test: co-IP; as a1, but the anti-HA beads were treated with RNase mixture (20 μg/ml) at 37 °C for 30 min; cells co-transfected with siRNAs against the other two of ElonginB, ElonginC, Cullin 5

Substance | binding [1] | binding [2]
CBF-β with FLAG tag (pcDNA3.1-CBF-β-FLAG) (from UniProt Q13951 1-182) | no binding | 
Cullin 5 with FLAG tag (pcDNA3.1-Cullin 5-FLAG) (from UniProt Q93034 1-780) | binds | binds
ElonginB with FLAG tag (pcDNA3.1-ElonginB-FLAG) (from UniProt Q15370 1-118) | no binding | 
endogenous Cullin 5 (from UniProt Q93034 1-780) | binds | 
